Laboratory results as given in PubChem BioAssay AID2685 (National Center for Advancing Translational Sciences (NCATS), 2010).
Some of the results follow. Shown are side measurements of this screen, not its main read-out; they come without a call. Most of these compounds were active or inconclusive in the main read-out, so they are no random draw. Words in brackets tell the shape of the fitted curve; partial curves, single points and poor fits give uncertain potencies.

Experiment: qHTS Assay for Lipid Storage Modulators in Drosophila S3 Cells;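 for cell number change: cells counted by Cell Tracker Red CMTPX staining in the red channel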
Details: BODIPY lipid droplet fluorescence, 18-24 h; for cell number change: measured here: cell count max response, cells fed with added oleic acid
How it was run: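 Drosophila S3 cells got compounds at several concentrations plus oleic acid (400 uM solution). Laser-scanning cytometry with 488 nm excitation read lipid droplets at 500-530 nm and cells at 575-640 nm. Percent activity was relative to 20 uM Triacsin C.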

[1] = measured here: lipid fluorescence (Fed channel) AC50, cells fed with added oleic acid
[2] = measured here: cell number channel AC50, cells fed with added oleic acid

| Compound | cell number change | AC50 [1] | AC50 [2] |
| --- | --- | --- | --- |
| COc1ccccc1C(CNC(=O)CNC(=O)c1ccc(C)c(C)c1)N1CCCC1 (centres undefined) | 0.402% | 20.6 µM [rising, partial curve, poor fit] |  |
| O=C(CN(Cc1ccco1)C(=O)c1ccc([N+](=O)[O-])cc1)Nc1ccccc1C(F)(F)F | -7.02% | 11.6 µM [falling, partial curve, poor fit] |  |
| CC(=O)N1CCN(c2ccc(NC(=O)COc3ccc(Cl)cc3Cl)cc2)CC1 | -24.9% | 0.103 µM [rising, full curve, poor fit] |  |
| Cc1noc(C)c1COc1ccc(CC(=O)NCCc2ccccn2)cc1 | 0.794% |  |  |
| O=C(c1ccc(COc2c(F)c(F)cc(F)c2F)o1)N1CCN(c2ccc(Cl)cc2)CC1 | -10.2% | 14.6 µM [rising, partial curve] |  |
| CCN(Cc1cc2cc(C)ccc2[nH]c1=O)C(=O)c1cccc(OC)c1 | 38.2% | 25.9 µM [rising, partial curve, poor fit] | 16.4 µM [rising, single point] |
| NNc1nc2cccnc2n(CCNc2ncc(C(F)(F)F)cc2Cl)c1=O | 76.8% |  | 20.6 µM [rising, single point] |
| CCC(C)NC(=S)Nc1ccc2nc(N3CCN(CC)CC3)cc(C)c2c1 (centres undefined) | -25.7% | 29.1 µM [falling, single point] |  |
| Nc1nc(CN2CCCCC2)cs1 | -13% | 1.64 µM [falling, full curve] |  |
| C/C(=N\NC(=O)COc1cccc(Cl)c1)c1ccc2c(c1)OCCO2 | 31.7% |  | 9.2 µM [rising, partial curve] |
| COc1cc(O)c(C(CC(=O)N2CCCC2)c2ccc(N(C)C)cc2)c(OC)c1 (centres undefined) | 25.9% | 0.116 µM [rising, full curve, poor fit] |  |
| Cc1cc(C)c2cc(CNC3CCCC3)c(Cl)nc2c1 | 0.506% | 0.82 µM [rising, full curve, poor fit] |  |
| O=C(c1cccc(S(=O)(=O)N2CCN(c3ccccc3)CC2)c1)N1CCCCCCC1 | 19.9% | 29.1 µM [rising, single point] |  |
| CCN(CC)/C(=N/S(=O)(=O)c1ccc(C)cc1)c1ccccc1 | -54.4% | 29.1 µM [falling, single point] | 29.1 µM [falling, single point] |
| CCNc1nc(NCC)n2c(SC(C(=O)Nc3cc(Cl)cc(Cl)c3)c3ccccc3)nnc2n1 (centres undefined) | 25% |  |  |
| COc1ccc(/C=C/c2c(-c3ccc(OC)cc3)oc3ccc(-c4ccc(OC)cc4)cc23)cc1 |  | 6.51 µM [rising, partial curve, poor fit] |  |
| Cc1cccc(N2C(=O)CSC2c2cccnc2)c1 (centres undefined) | -15.1% | 6.51 µM [rising, partial curve, poor fit] |  |
| CSc1ncccc1C(=O)Nc1cccc(S(=O)(=O)N(C)c2ccccc2)c1 | 7.13% | 0.00461 µM [falling, full curve, poor fit] |  |
| O=C(c1ccc(CN2CCc3ccccc3C2)cc1)N1CCc2ccccc2C1 | 31.8% | 29.1 µM [rising, single point] | 1.64 µM [rising, full curve, poor fit] |
| COc1cc(CN2CCN(CCCc3ccccc3)CC2CCO)cc(OC)c1 (centres undefined) | 17% |  |  |
| CCOc1ccc(N(CC(=O)NCc2ccccc2Cl)S(=O)(=O)c2c(C)[nH]c(=O)[nH]c2=O)cc1 | 3.8% |  |  |

Exported as comma-separated lines: part of the list above
Compound,cell number change,AC50 [1],AC50 [2]
CSc1ncccc1C(=O)Nc1cccc(S(=O)(=O)N(C)c2ccccc2)c1,7.13%,"0.00461 µM [falling, full curve, poor fit]",
O=C(c1ccc(CN2CCc3ccccc3C2)cc1)N1CCc2ccccc2C1,31.8%,"29.1 µM [rising, single point]","1.64 µM [rising, full curve, poor fit]"
COc1cc(CN2CCN(CCCc3ccccc3)CC2CCO)cc(OC)c1 (centres undefined),17%,,
CCOc1ccc(N(CC(=O)NCc2ccccc2Cl)S(=O)(=O)c2c(C)[nH]c(=O)[nH]c2=O)cc1,3.8%,,

The list goes on.

| Compound | cell number change | AC50 [1] | AC50 [2] |
| --- | --- | --- | --- |
| O=[N+]([O-])c1ccc(COc2ncnc3ccccc23)cc1 | -34.8% |  | 14.6 µM [falling, partial curve] |
| CCc1ccc(NC(=O)CN(c2ccc(OC)cc2)S(=O)(=O)c2c(C)[nH]c(=O)[nH]c2=O)cc1 | 24.2% |  |  |
| CN(C)/C=C/C(=O)c1cnc2sccn2c1=O | -29.8% | 0.146 µM [falling, full curve, poor fit] | 0.116 µM [falling, full curve, poor fit] |
| Cc1ccc(C)c(S(=O)(=O)N2CCN(C(C)C(=O)Nc3ccccc3-c3ccccc3)CC2)c1 (centres undefined) | 200% |  | 23.1 µM [rising, single point] |
| COC(=O)c1ccccc1NC(=O)C1COc2ccccc2O1 (centres undefined) | 214% | 29.1 µM [rising, single point] |  |
| COCCn1c(SCCN2CCCCC2)nc2ccccc2c1=O | 9.27% |  |  |
| COc1cccc(CNCCO)c1OCc1ccccc1 | 39.5% |  |  |
| Oc1c(-c2cc(-c3ccco3)[nH]n2)ccc2ccccc12 | -0.661% | 6.51 µM [falling, single point] |  |
| O=C(CSc1nnc(C2COc3ccccc3O2)o1)N1CCOCC1 (centres undefined) | 17.6% | 7.31 µM [rising, partial curve] |  |
| O=S(=O)(c1ccccc1)N1CCN(C(=S)NCCc2ccccc2)CC1 | -28.2% |  |  |
| COc1cccc(N/C(N)=N/c2nc(C(F)(F)F)cc(=O)[nH]2)c1 | -35.3% | 14.6 µM [falling, partial curve, poor fit] | 20.6 µM [falling, single point] |
| Cc1cccc(N2CCCn3c2nc2c3c(=O)n(CC(=O)OCc3ccccc3)c(=O)n2C)c1 | 8.67% | 32.6 µM [rising, single point] |  |
| COc1cc(OC)cc(C(=O)O/N=C(\N)c2cccc(C)c2)c1 |  | 29.1 µM [rising, partial curve] |  |
| Cc1cc(C)n(-c2cc(N3CCN(S(=O)(=O)c4ccc(Cl)cc4)CC3)ccc2[N+](=O)[O-])n1 | -16.3% | 0.731 µM [falling, full curve, poor fit] |  |
| Cc1ccccc1C(=O)NC1CCN(Cc2nnnn2Cc2ccc(F)cc2)CC1 | -24.5% | 29.1 µM [falling, single point] |  |
| C[C@@H](NC(=O)c1[nH]cnc1C(=O)Nc1cccc(Cl)c1)c1ccccc1 | -52% | 0.461 µM [falling, single point] | 25.9 µM [falling, single point] |
| CCCN(CCC)CCNC(=O)C1CCCN(S(=O)(=O)c2ccc3c(c2)oc(=O)n3C)C1 (centres undefined) | -10.1% |  |  |
| Clc1ccccc1-c1nnc2sc(-c3ccc(Br)o3)nn12 | -21.9% | 0.00461 µM [rising, full curve, poor fit] |  |
| CC(NC(=O)CCCc1c[nH]c2ccccc12)c1ccc(F)cc1 (centres undefined) | 21.2% |  |  |
| Cc1cc(=O)oc2ccc(OC(=O)CN3C(=O)c4cccc([N+](=O)[O-])c4C3=O)cc12 | -33.9% | 0.58 µM [falling, full curve] | 0.731 µM [falling, full curve] |
| COc1ccc(CCC(=O)NCCOc2ccc(C)cc2)cc1 | -0.185% | 0.58 µM [rising, partial curve, poor fit] |  |

| Compound | cell number change | AC50 [1] | AC50 [2] |
| --- | --- | --- | --- |
| CN(C)c1ccc(N=Nc2ccccc2C(=O)OCC(=O)N2CCCCCC2)cc1 | 3.02% |  |  |
| CCOC(=O)CCc1c(C)c2ccc(OCC(=O)N3CCOCC3)c(C)c2oc1=O | -34.1% | 12.6 µM [falling, partial curve] | 35.5 µM [falling, single point] |
| OC(COc1ccc(Cl)c2ccccc12)CN1CCN(c2ccccn2)CC1 (centres undefined) | -38.5% | 29.1 µM [falling, single point] | 29.1 µM [falling, single point] |
| Cc1ccc(N2CC(C(=O)Nc3cccnc3)CC2=O)cc1C (centres undefined) | -13.2% |  |  |
| CC(C)n1c(Nn2cnnc2)nc2ccccc21 |  | 29.1 µM [rising, single point] |  |
| COc1ccc(OC)c(CN(CCCN2CCOCC2)S(=O)(=O)c2ccc(NC(C)=O)cc2)c1 | 29.2% | 18.4 µM [rising, partial curve] |  |
| CC#CC[N+](C)(C)CCCCCCCCCC | -23.7% | 25.9 µM [falling, single point] |  |
| Cc1ccccc1OCCCCCn1ccnc1 | 0.453% | 0.116 µM [rising, full curve] |  |
| O=S(=O)(c1ccc(F)c(F)c1)N1CCN(S(=O)(=O)c2cccs2)CC1 |  | 29.1 µM [falling, single point] |  |
| CC1CCCC(C)N1C(=O)CSc1nc2ccccc2c(=O)[nH]1 (centres undefined) |  | 20.6 µM [rising, single point] |  |
| CC(=O)N/C(=C\c1ccc2c(c1)OCO2)C(=O)NC(C(=O)O)c1ccccc1 (centres undefined) | 12.8% | 0.651 µM [rising, partial curve] | 0.731 µM [rising, full curve, poor fit] |
| COc1cccc(NC(=O)Cn2cc(C(=O)C3CC3)c3ccccc32)c1 |  |  | 2.31 µM [rising, partial curve, poor fit] |
| COC(=O)c1ccc(OCC(O)CN(CCO)CCO)cc1 (centres undefined) | -9.44% | 0.164 µM [falling, full curve, poor fit] |  |
| COc1ccc(C)cc1NC(=O)CN1CCN(c2ccccc2F)CC1 | -0.541% | 0.82 µM [rising, full curve] |  |
| Cc1ccc(S(=O)(=O)CCC(=O)OCc2nc(N)nc(Nc3ccccc3C)n2)cc1 | -1.71% | 11.6 µM [rising, partial curve] |  |
| c1ccc2oc(SCc3nc4ccccc4s3)nc2c1 | 14.2% | 4.61 µM [rising, single point] | 0.13 µM [falling, full curve, poor fit] |
| COc1ccc(CCNS(=O)(=O)c2ccc3c(c2)NC(=O)C(C)S3)cc1OC (centres undefined) | 1.79% |  |  |
| CCOC(=O)C(=O)NC(C)c1ccccc1 (centres undefined) | 20.2% | 25.9 µM [rising, single point] |  |
| COc1ccc(NC(=O)C2CCCN(S(=O)(=O)c3ccccc3)C2)c(OC)c1 (centres undefined) | -23.3% | 29.1 µM [rising, single point] |  |
